Reference: paper PMC7819943, “Rice protein-binding microarrays: a tool to detect cis-acting elements near promoter regions in rice”
The list shows a part of the results.

Chains of the proteins cited; added tags and fusions are not shown.
UniProt Q0JBA9, entry or part of it: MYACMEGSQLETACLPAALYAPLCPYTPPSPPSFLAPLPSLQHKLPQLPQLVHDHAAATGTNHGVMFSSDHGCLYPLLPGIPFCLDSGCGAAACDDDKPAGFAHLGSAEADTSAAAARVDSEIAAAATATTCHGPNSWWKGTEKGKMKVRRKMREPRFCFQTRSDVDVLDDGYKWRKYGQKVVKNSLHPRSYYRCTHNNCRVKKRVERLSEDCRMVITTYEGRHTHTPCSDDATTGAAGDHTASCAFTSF

Molecular target: OsWRKY34 (Oryza sativa, UniProt Q0JBA9 1-250)
Experiment: protein-binding microarray (RPBM); PBS, 2% BSA, 51.3 ng/ul salmon testes DNA, 50 uM zinc acetate, 200 nM TF, 25 C, 1 h; high values mean tight binding
Details: protein: recombinant; tags: N-terminal polyhistidine and DsRed monomer fusion (pET32a); label: CyDye5-dUTP incorporated in the synthesized complementary strand; 3' TTTTT single-stranded linker to array surface; dsDNA, one strand shown
Summary of the method: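 Binding signal is defined as the fluorescence intensity of each feature in arbitrary units, read on an Axon 4000B scanner. Transcription factors with N-terminal polyhistidine and DsRed fusions came from E. coli BL21-CodonPlus and were purified on Ni–NTA. They were incubated at 200 nM for 1 h at 25 °C on a custom Agilent array that had been made double-stranded with Cy5-dUTP, with 50 µM zinc acetate present, and the array was washed.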

Sequence	binding signal
TAATGGGGCATATTCGTGGGTGTGTAAGTATAACGTTATACGGAGTCACCTAGTGCAG	9830 fluorescence intensity (a.u.)
GATCGAAACTAGTTAGGGTTGGAAGGGGCATTTTAGTATTCGGAGTCACCTAGTGCAG	9940 fluorescence intensity (a.u.)
AGGGGCGGATACGTGATTTCTAAGAGGCGAGCTTCTTCTCCGGAGTCACCTAGTGCAG	8290 fluorescence intensity (a.u.)
TTCCTTGCTGCTCTGCTTTTTCTCCTGCTACGCGTGATCACGGAGTCACCTAGTGCAG	14400 fluorescence intensity (a.u.)
ATTTCTCATAATGTTCACTGTTACCTCGTCGTATGCAACACGGAGTCACCTAGTGCAG	9940 fluorescence intensity (a.u.)
AACGTTGGTTAAAAAGTCAACGGCGTCATACATTAACATACGGAGTCACCTAGTGCAG	11300 fluorescence intensity (a.u.)
GGTTGGGGAAGGGAAGGGAAGGGAGAGGAGAGGGGCTCGCCGGAGTCACCTAGTGCAG	9900 fluorescence intensity (a.u.)
CTTCGCCTCCGCGCCGCCGCCGCCTCTGTCCGTTCCGCCGCGGAGTCACCTAGTGCAG	8510 fluorescence intensity (a.u.)
GGGCCTGGACTTGTTCTCCTTGTCGGATTCCAGCCCATATCGGAGTCACCTAGTGCAG	9260 fluorescence intensity (a.u.)
CTCTCTCTCTCTCTCTCTCTCTATATATATATATATATATCGGAGTCACCTAGTGCAG	10100 fluorescence intensity (a.u.)
GGACCGAGGGAGTATTTGTTTCTCCAGTGTCTCCGCTCTGCGGAGTCACCTAGTGCAG	8190 fluorescence intensity (a.u.)
TGGGCTCACTTTTTTTTTCGCCGATTTATAATTATAAAATCGGAGTCACCTAGTGCAG	9160 fluorescence intensity (a.u.)
AAACCGACTTGGCTTTCGCTACGCCCAGCTTCGGCCGCGCCGGAGTCACCTAGTGCAG	8200 fluorescence intensity (a.u.)
TTACTATGTTTCACTTTTCTTTACTATTTAAAAAGTTTCTCGGAGTCACCTAGTGCAG	8360 fluorescence intensity (a.u.)
TTGGATGTTCTTCCCGTTGTTGTGTTTTATCATGTGCCTTCGGAGTCACCTAGTGCAG	9330 fluorescence intensity (a.u.)
CCCATCTCACCAGTGACGTGCTTCTTCATCATCCCTATATCGGAGTCACCTAGTGCAG	11600 fluorescence intensity (a.u.)
TGTGAGGCATCATCTTATTCAACTGTGTATTAATTTTTTTCGGAGTCACCTAGTGCAG	9100 fluorescence intensity (a.u.)
ACTAGCAAAAACCGTTGACTTAGTCTATAGCATTCCTTGTCGGAGTCACCTAGTGCAG	12600 fluorescence intensity (a.u.)
CCTCTTGTCGCCACGTCCCACGCTACTCCTTTTTAAATGCCGGAGTCACCTAGTGCAG	12100 fluorescence intensity (a.u.)
ATGGACGACGCCACGAGCTCGCTCTCACACGCGCCATCAGCGGAGTCACCTAGTGCAG	9470 fluorescence intensity (a.u.)
TTTCCATTGTGTTCTGGTTGTTGTAAGGTTTTCAAAGAATCGGAGTCACCTAGTGCAG	9100 fluorescence intensity (a.u.)

Sequence	binding signal
TATCATCTACCCCAAAGGTTTGGTTGTTCCTATTTCCTATCGGAGTCACCTAGTGCAG	13100 fluorescence intensity (a.u.)
CTCTCGTCTCCCGATCCCGCACGCGGCCAGCTACAAATACCGGAGTCACCTAGTGCAG	8890 fluorescence intensity (a.u.)
GTAGGTGGATATGATAATGAATCTTCTGTCAGTTTTTTTTCGGAGTCACCTAGTGCAG	10300 fluorescence intensity (a.u.)
TTGACCTTGCTCTTATATAGCAGACCATTTTTCTGCTGCTCGGAGTCACCTAGTGCAG	9090 fluorescence intensity (a.u.)
TGTCATGCATAACAACCATACTCCTTTATCTTTCTTTTATCGGAGTCACCTAGTGCAG	9010 fluorescence intensity (a.u.)
AGTATTTTGACTTTGACCAAAGTCAAAACAACTTATAACTCGGAGTCACCTAGTGCAG	12500 fluorescence intensity (a.u.)
TGCTCTTATTGCTGCTATTATATGGCCATGCTGTTGCTACCGGAGTCACCTAGTGCAG	9740 fluorescence intensity (a.u.)
GAGGTGGGTGTGGAACTGTGGATGCGGGTCGGGGAGATCGCGGAGTCACCTAGTGCAG	16900 fluorescence intensity (a.u.)
AGCACAACGACTAACCTCTTGCCTTATCCATCTACTAGTACGGAGTCACCTAGTGCAG	8890 fluorescence intensity (a.u.)
CCCGATCATCTGTTGGGCCTAATTTGATCTCACTTTTTTTCGGAGTCACCTAGTGCAG	8230 fluorescence intensity (a.u.)
GCTCGCCATCGCATCATGTACCCTCAATTTCGCTTCGCCACGGAGTCACCTAGTGCAG	11400 fluorescence intensity (a.u.)
TTTACATCTAATATTTTTTATTTGGGGTTCAGCGGGCATTCGGAGTCACCTAGTGCAG	11100 fluorescence intensity (a.u.)
TTTTTCTCAACTAAACTGTCCCATTGTGTTGTGCGTTCTCCGGAGTCACCTAGTGCAG	11600 fluorescence intensity (a.u.)
CGAGTTCCTCGTGCGCCAATTATACTATACCTCTACATATCGGAGTCACCTAGTGCAG	8800 fluorescence intensity (a.u.)
GTCTTTTTGTTGGTTGGTTTTTATTAACGATGGTTTGGTTCGGAGTCACCTAGTGCAG	9920 fluorescence intensity (a.u.)
TCTCTTTCTATAATATATCAACGACTTTATCAATTGTTCTCGGAGTCACCTAGTGCAG	8620 fluorescence intensity (a.u.)
CTCGTCGACACCTGCGGCCTCACCGCCGCCCAGGCGCTCACGGAGTCACCTAGTGCAG	8430 fluorescence intensity (a.u.)
CCATTCCCACTATTATCATCGATTGATACATAGAGCATGCCGGAGTCACCTAGTGCAG	8250 fluorescence intensity (a.u.)
ATCAATCCAAGTTTCATATTATGTTCATGAATCTCTTGTCCGGAGTCACCTAGTGCAG	8910 fluorescence intensity (a.u.)
CTCGGTCGGCAGGCTTGGTATCAATCTTGGGAGGGGAAAACGGAGTCACCTAGTGCAG	11200 fluorescence intensity (a.u.)
TTGGCTGTATTATTAAACTTGCTCTTACTACTCCATCCGTCGGAGTCACCTAGTGCAG	8390 fluorescence intensity (a.u.)

A few values from the list:
CCATTCCCACTATTATCATCGATTGATACATAGAGCATGCCGGAGTCACCTAGTGCAG – binding signal: 8250 fluorescence intensity (a.u.)
TTTCCATTGTGTTCTGGTTGTTGTAAGGTTTTCAAAGAATCGGAGTCACCTAGTGCAG – binding signal: 9100 fluorescence intensity (a.u.)
TTGACCTTGCTCTTATATAGCAGACCATTTTTCTGCTGCTCGGAGTCACCTAGTGCAG – binding signal: 9090 fluorescence intensity (a.u.)
ATTTCTCATAATGTTCACTGTTACCTCGTCGTATGCAACACGGAGTCACCTAGTGCAG – binding signal: 9940 fluorescence intensity (a.u.)

Fetched one by one from the entries so far, 2 records:
Sequence	binding signal
CTCGTCGACACCTGCGGCCTCACCGCCGCCCAGGCGCTCACGGAGTCACCTAGTGCAG	8430 fluorescence intensity (a.u.)
TCTCTTTCTATAATATATCAACGACTTTATCAATTGTTCTCGGAGTCACCTAGTGCAG	8620 fluorescence intensity (a.u.)

(list continues)

Sequence	binding signal
TCCGGGTCTTTCTCAATGCAACATCGTTCCATCGTCAAAACGGAGTCACCTAGTGCAG	10300 ± 164 fluorescence intensity (a.u.)
TCGTCACATGTCTCATCTCTGCAACCAACTTCTCTTTAGCCGGAGTCACCTAGTGCAG	9000 fluorescence intensity (a.u.)
CGGAGATCTTCAGAAACGAGTTATTTTTCCTCGCAAAACGCGGAGTCACCTAGTGCAG	8690 fluorescence intensity (a.u.)
AGGGACACATGTTTTGCTTTTTTCTCAGAATTTTTTGAATCGGAGTCACCTAGTGCAG	8960 fluorescence intensity (a.u.)
ATTTATCAAGAGAGTTGTTGGTTATGTGGGTTCAAGGATACGGAGTCACCTAGTGCAG	9460 fluorescence intensity (a.u.)
GATTATGGATGGGTTTTTATTAATAGTCTACGTTTAATATCGGAGTCACCTAGTGCAG	8160 fluorescence intensity (a.u.)
TATTATTGCGTTCTCTTGTCTATGTTGATGCTTATTCTATCGGAGTCACCTAGTGCAG	11400 fluorescence intensity (a.u.)
TGCTTGTGTTTTTCTTTCTTCATCAGCTTATTCTTATTTTCGGAGTCACCTAGTGCAG	9430 fluorescence intensity (a.u.)
AGCCACTGAAGGATAATGTACTACTTTTTTTTACCTTTTACGGAGTCACCTAGTGCAG	9460 fluorescence intensity (a.u.)
TGACTGACCGCATCCTCGTCGTCGTTTTCATCAGATGCTGCGGAGTCACCTAGTGCAG	9510 fluorescence intensity (a.u.)
AGGATCCTGGTTGCGAAAATTTCTGGTCCACATTGACATTCGGAGTCACCTAGTGCAG	9090 fluorescence intensity (a.u.)
GTGTTTCATTCTCTTGTTTTCCTACTTAACGCTTCTAGTTCGGAGTCACCTAGTGCAG	8260 fluorescence intensity (a.u.)
AGTACTTACATTCAGTCTCCATTTTGCACAAAAGCATTTGCGGAGTCACCTAGTGCAG	8090 fluorescence intensity (a.u.)
GGTTAAACATATTTAAAAAAAAGTCAACGACGTCATATATCGGAGTCACCTAGTGCAG	14200 fluorescence intensity (a.u.)
TAATGCCTTTTTTTTTTTTGAATGCCGGCTTAGCTCATTTCGGAGTCACCTAGTGCAG	9440 fluorescence intensity (a.u.)
TTCCGCCCGAAGTCTCCACGCTCCCGTGTCCCATTTAAAACGGAGTCACCTAGTGCAG	9690 fluorescence intensity (a.u.)
CATACCGCATGTCAATCTTCTTACTCTAGCATTCCTCGTCCGGAGTCACCTAGTGCAG	9520 fluorescence intensity (a.u.)
GGGTGTGGGATTTTTTGGTAAGTCATCTCTGACGGCTATACGGAGTCACCTAGTGCAG	11000 fluorescence intensity (a.u.)
AATACGCGCACGTTTCACACGTTTTCTTCGCGCCCCACTCCGGAGTCACCTAGTGCAG	12400 fluorescence intensity (a.u.)
CAAATATTTACTCATAAATTATTTTTGATGCTTGCTCGTTCGGAGTCACCTAGTGCAG	8110 fluorescence intensity (a.u.)
GAGAGACTTAGTTTGACTTGCATTCCCTGACTAGCTAGCTCGGAGTCACCTAGTGCAG	8120 fluorescence intensity (a.u.)

Sequence	binding signal
ACGTTATGTGTGGTGGGGATAAGTGACAGTGTGGCAGGAACGGAGTCACCTAGTGCAG	8590 fluorescence intensity (a.u.)
ATTGTTCATCGTCTGTCGTCTCTACAGCATTAGAGGACATCGGAGTCACCTAGTGCAG	8900 fluorescence intensity (a.u.)
GAGGATGGGTGGGCAGTGGCGCAAGGGTTTTATCCAAGCTCGGAGTCACCTAGTGCAG	10400 fluorescence intensity (a.u.)
TTTATTTGAAATTTTAAACATCTTCCATATATGTTTTTTTCGGAGTCACCTAGTGCAG	9010 fluorescence intensity (a.u.)
TTTCTTACTCACATAAACTTCCAACTTTTCCGTCACATCGCGGAGTCACCTAGTGCAG	8980 fluorescence intensity (a.u.)
GATCGTGGTAACAAGACCACTTACAATGTCATGTTGCGTTCGGAGTCACCTAGTGCAG	8150 fluorescence intensity (a.u.)
TCCTATTTTTGTGGAATCGGACATATTCTTTTTTTTTCCCCGGAGTCACCTAGTGCAG	10500 fluorescence intensity (a.u.)
TTTTCCTTGTACTATGGAGGAGTACTATTTTCTTTCTTTTCGGAGTCACCTAGTGCAG	8210 fluorescence intensity (a.u.)
TTCTCTTTTCAACTCAACCATTTTTACTTAGTCTATTAATCGGAGTCACCTAGTGCAG	8420 fluorescence intensity (a.u.)
GATTTTTTAATGCAGGGTAGCAACATGTGGGCATATTTATCGGAGTCACCTAGTGCAG	8530 fluorescence intensity (a.u.)
TTCTTGATATTCATCGGATCATTAGCCTCTGTTGCTTGCTCGGAGTCACCTAGTGCAG	8250 fluorescence intensity (a.u.)
TAACACCCAACACTTACACTCTGGCATTTTGGAGGTCTTGCGGAGTCACCTAGTGCAG	8990 fluorescence intensity (a.u.)
ATTTCCCCTGAACTCTACGTTTACAGGTTATGGTTATCTCCGGAGTCACCTAGTGCAG	8350 fluorescence intensity (a.u.)
ATCCTCTCCTTGACTTCCTACGAAGATTAATCTATCCTTCCGGAGTCACCTAGTGCAG	8040 fluorescence intensity (a.u.)
ATTCCTCGTCTCGCTTCGCTCTTGCTCTTGACTCCGCTCTCGGAGTCACCTAGTGCAG	11500 fluorescence intensity (a.u.)
TTCTCTATCTAGCCCTCTTTCCATCATCTTTGGCACCTGCCGGAGTCACCTAGTGCAG	8750 fluorescence intensity (a.u.)
CACAAGCTGCAATTAGCCGAAATCCTCCGTATATTTCACCCGGAGTCACCTAGTGCAG	8360 fluorescence intensity (a.u.)
TCTGGTTTTGCGGTTCAGTGCCACGGATTAGATTCATGTTCGGAGTCACCTAGTGCAG	9060 fluorescence intensity (a.u.)
ACTCTCTACACTAATATGACCAGAGCAGGATTATACTTTTCGGAGTCACCTAGTGCAG	12200 fluorescence intensity (a.u.)
CTGTTGTTATACATTATACCTATGAGCGTGTTTGGTTACCCGGAGTCACCTAGTGCAG	9180 fluorescence intensity (a.u.)
GTCTTGGGCACCTCGCGTTTCACACTTTTCTTCTGTACCACGGAGTCACCTAGTGCAG	11800 fluorescence intensity (a.u.)
